From the supplement of paper PMC10849652
The list shows a part of the results.

The chains behind the UniProt entries cited, without tags or fusion partners. Where a name states a change or a piece, a line headed by the entry shows the natural chain unless it says otherwise.
UniProt Q9H3S4: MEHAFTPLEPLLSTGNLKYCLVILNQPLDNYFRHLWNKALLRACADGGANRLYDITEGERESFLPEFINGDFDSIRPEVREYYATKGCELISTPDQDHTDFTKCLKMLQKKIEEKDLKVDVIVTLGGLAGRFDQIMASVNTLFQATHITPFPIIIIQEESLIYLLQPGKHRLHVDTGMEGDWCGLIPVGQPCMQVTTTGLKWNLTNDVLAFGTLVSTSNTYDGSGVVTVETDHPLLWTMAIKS
UniProt Q02880: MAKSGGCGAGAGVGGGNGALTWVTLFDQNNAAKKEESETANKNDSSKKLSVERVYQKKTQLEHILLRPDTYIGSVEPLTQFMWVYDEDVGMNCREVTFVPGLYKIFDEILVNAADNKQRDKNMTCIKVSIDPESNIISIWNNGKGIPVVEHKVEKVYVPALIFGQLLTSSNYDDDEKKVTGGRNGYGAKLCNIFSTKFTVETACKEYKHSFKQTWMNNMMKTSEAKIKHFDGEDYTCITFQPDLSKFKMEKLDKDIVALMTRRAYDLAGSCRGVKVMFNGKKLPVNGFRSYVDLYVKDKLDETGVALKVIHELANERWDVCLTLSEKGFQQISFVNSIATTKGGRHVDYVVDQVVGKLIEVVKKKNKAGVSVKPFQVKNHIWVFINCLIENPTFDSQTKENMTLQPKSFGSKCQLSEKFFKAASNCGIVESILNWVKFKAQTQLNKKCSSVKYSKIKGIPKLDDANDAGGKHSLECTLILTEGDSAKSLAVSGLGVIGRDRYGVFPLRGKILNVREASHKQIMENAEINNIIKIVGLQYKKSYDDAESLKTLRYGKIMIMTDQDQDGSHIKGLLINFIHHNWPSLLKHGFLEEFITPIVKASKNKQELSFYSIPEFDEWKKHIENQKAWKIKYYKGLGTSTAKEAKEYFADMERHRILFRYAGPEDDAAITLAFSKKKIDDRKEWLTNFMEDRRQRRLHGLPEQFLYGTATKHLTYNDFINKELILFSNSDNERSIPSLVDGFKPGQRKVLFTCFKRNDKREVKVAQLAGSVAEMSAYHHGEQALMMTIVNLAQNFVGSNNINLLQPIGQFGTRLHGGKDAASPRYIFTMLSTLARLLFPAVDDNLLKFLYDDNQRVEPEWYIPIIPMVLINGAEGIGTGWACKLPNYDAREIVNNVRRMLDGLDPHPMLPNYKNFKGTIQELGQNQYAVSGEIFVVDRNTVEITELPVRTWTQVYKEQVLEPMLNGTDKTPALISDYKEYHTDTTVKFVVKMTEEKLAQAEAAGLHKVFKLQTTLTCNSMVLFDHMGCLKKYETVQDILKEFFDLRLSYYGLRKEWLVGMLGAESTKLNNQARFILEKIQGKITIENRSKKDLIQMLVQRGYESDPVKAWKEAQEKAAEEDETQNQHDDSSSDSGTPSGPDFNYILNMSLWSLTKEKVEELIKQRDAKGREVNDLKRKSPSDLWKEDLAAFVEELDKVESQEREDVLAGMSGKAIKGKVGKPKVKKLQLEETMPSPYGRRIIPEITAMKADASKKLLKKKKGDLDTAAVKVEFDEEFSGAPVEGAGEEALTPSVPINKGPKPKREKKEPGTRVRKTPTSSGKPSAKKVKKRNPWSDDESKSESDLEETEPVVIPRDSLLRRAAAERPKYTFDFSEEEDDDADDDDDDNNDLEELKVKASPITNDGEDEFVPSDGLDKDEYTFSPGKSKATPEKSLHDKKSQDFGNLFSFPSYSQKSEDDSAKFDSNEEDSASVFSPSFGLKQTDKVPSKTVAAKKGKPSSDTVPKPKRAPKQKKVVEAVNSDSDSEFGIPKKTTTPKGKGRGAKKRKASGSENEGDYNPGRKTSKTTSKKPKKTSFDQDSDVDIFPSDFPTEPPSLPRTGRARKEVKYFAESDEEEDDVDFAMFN
UniProt Q15629: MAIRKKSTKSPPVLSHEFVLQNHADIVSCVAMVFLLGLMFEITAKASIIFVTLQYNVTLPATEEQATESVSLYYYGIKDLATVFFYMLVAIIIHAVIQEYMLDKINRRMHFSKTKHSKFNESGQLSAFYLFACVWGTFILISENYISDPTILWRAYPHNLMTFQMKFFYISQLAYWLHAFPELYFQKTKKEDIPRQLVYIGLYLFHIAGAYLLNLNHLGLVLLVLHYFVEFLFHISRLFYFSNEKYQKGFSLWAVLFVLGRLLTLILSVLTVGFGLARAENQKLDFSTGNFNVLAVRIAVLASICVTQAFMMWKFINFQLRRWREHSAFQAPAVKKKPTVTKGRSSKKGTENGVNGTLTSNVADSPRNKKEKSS
UniProt Q7L0Y3: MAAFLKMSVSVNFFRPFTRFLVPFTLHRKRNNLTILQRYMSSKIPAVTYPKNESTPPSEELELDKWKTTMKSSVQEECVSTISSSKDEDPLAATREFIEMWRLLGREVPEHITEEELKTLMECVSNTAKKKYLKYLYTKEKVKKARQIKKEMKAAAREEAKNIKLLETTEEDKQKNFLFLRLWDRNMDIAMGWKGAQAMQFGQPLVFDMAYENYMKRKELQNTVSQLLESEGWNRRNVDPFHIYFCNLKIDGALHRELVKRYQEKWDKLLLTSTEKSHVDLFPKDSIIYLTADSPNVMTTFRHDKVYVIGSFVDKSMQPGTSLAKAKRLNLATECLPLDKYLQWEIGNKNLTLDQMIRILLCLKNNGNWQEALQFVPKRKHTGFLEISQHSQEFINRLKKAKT
UniProt Q969M1: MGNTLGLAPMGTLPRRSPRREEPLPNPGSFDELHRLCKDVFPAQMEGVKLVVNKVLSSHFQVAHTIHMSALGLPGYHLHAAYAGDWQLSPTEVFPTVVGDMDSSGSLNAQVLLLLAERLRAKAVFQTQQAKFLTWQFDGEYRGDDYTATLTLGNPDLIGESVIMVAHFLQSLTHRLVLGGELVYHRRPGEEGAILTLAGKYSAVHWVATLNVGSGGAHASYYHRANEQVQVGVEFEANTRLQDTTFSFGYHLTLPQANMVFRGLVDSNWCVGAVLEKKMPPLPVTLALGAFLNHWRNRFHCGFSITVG
UniProt O43617, whole entry, looked up: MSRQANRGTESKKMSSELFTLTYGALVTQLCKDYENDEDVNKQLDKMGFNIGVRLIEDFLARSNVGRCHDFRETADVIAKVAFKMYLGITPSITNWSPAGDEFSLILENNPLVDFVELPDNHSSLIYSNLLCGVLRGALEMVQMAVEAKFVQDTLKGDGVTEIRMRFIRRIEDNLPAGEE
UniProt Q15642: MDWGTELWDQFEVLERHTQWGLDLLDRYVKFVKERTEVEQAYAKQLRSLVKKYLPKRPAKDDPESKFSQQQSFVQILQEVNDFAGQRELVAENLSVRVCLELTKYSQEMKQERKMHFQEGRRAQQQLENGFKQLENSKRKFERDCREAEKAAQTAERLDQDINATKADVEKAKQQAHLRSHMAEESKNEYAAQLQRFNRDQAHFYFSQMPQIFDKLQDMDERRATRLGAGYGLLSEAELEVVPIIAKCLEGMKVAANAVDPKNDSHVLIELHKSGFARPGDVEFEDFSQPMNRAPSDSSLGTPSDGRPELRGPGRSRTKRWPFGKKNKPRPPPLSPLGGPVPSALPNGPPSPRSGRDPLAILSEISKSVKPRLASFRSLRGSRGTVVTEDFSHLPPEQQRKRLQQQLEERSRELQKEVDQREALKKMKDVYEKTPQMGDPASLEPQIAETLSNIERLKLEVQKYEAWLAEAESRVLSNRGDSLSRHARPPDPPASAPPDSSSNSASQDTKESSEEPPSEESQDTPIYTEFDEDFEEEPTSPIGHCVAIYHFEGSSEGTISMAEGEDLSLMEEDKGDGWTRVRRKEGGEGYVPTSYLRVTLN
UniProt O94826, whole entry, looked up: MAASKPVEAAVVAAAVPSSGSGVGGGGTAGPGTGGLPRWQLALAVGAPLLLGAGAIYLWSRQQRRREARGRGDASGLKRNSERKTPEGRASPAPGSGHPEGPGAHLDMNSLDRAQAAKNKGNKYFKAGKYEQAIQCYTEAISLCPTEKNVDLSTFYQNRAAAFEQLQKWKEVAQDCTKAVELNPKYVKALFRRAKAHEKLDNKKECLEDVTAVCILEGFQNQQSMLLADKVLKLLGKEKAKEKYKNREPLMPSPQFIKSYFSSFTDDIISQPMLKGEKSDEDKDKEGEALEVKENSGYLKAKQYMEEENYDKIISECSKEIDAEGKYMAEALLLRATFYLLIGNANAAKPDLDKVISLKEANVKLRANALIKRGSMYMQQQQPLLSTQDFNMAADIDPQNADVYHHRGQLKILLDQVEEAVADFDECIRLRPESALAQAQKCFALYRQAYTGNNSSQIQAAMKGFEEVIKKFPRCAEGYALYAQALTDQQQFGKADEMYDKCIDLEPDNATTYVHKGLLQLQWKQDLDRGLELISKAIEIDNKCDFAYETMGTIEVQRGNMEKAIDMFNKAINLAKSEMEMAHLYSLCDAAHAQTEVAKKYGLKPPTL

Key:
Assay in all cases: log2 fold change, soluble protein after heating vs DMSO (PISA); higher = thermal stabilisation; K562 cells, 10 uM, 30 min; active = over 0.2 and 3.5 SD of the protein, either way, in both replicates (recomputed)
[1] = compound: C1=CC=C(C=C1)[C@H](COC2=CC3=C(C=C2)NC(=O)N3)NC(=O)C4=CC=CN(C4=O)CC5=CC(=C(C=C5)F)F
Outline: (§1)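 K562 cells (2×10^6 cells/mL) were treated with 10 μM compound for 30 min, and aliquots were heated for 3 min over 48°C-58°C. Pooled aliquots were extracted in PBS with 0.5% NP-40 at 4°C, and the supernatant after 21,000xg for 90 min was measured by TMTpro 16plex LC-MS/MS with channel sums equalised. Reported thermal stability, relative to control samples and from duplicates, is a log2 fold change.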

[2] = compound: CC1=C(SC2=C1C(=N[C@H](C3=NN=C(N32)C)CC(=O)N)C4=CC=C(C=C4)Cl)C
Outline: as §1

[3] = compound: CC1=C2C(=CC=C1)N=C(N(C2=O)C3=CC=CC=C3C)CN4C=NC5=C(N=CN=C54)N
Outline: as §1

[4] = compound: Cc1sc2c(c1C)C(c1ccc(Cl)cc1)=N[C@@H](CC(=O)OC(C)(C)C)c1nnc(C)n1-2
Outline: as §1

[5] = compound: c1ccc([C@@H]2C[C@H]2NC2CCNCC2)cc1
Outline: as §1

Measured: log2 fold change

TPK1 (UniProt Q9H3S4)
inactive: [1] 0.022 | [2] 0.168 | [3] -0.052 | [4] 0.082 | [5] 0.017

TOP2B (UniProt Q02880)
inactive: [1] 0.128 | [2] -0.266 | [3] -0.416 | [4] 0.202 | [5] 0.013

TRAM1 (UniProt Q15629)
inactive: [1] -0.167 | [2] -0.024 | [3] -0.008 | [4] 0.049 | [5] -0.018

TRMT10C (UniProt Q7L0Y3)
inactive: [1] -0.018 | [2] 0.029 | [3] 0.085 | [4] 0.005 | [5] -0.08

TOMM40L (UniProt Q969M1)
inactive: [1] -0.013 | [2] 0.023 | [3] -0.013 | [4] -0.017 | [5] 0.05

TRAPPC3 (UniProt O43617)
inactive: [1] -0.025 | [2] 0.03 | [3] 0.036 | [4] -0.024 | [5] 0.007

TRAPPC2 isoform 3 (UniProt P0DI81)
inactive: [1] -0.049 | [2] -0.055 | [3] 0.082 | [4] 0.015 | [5] 0.036

TRIP10 isoform 2 (UniProt Q15642)
inactive: [1] -0.039 | [2] 0.085 | [3] 0.222 | [4] 0.03 | [5] -0.026

TOMM70 (UniProt O94826)
inactive: [1] -0.012 | [2] 0.026 | [3] 0.055 | [4] -0.01 | [5] -0.029

Quoted from the results shown (two entries):
TRIP10 isoform 2 (UniProt Q15642)
inactive: [1] -0.039 | [2] 0.085 | [3] 0.222 | [4] 0.03 | [5] -0.026

TOMM70 (UniProt O94826)
inactive: [1] -0.012 | [2] 0.026 | [3] 0.055 | [4] -0.01 | [5] -0.029
